Reference: US6759538B2, “Substituted diphenyl heterocycles useful for treating HCV infection” (priority 2001, dated 2004)
Some results were stated once for a whole list of compounds, not compound by compound.

Each substance was assayed on 5-2 Luc cells, 9-13 cells or Huh-7 cells (assay: Cytotoxicity assay (Cell Titer Glo)). Conditions: read-out: IC50 cytotoxicity (number of viable cells), liver cells including an HCV replicon, 24 hr.

Substance	IC50 [µM]
2,2-Dichloro-N-[3-[3-[2,6-dimethyl-4-(N-morpholino-2-ethyleneoxy)phenyl]-5-isoxazolyl]phenyl] Acetamide [Compound 23]	> 5
2,2-Dichloro-N-[3-[3-[2-fluoro-(6-N-morpholinosulfamoyl)phenyl]-5-isoxazolyl]-phenyl] Acetamide [Compound 21]	> 10
2,2-Dichloro-N-[3-[3-[2-(N-morpholino)-6-trifluoromethylphenyl)-5-isoxazolyl]phenyl] Acetamide [Compound 37]	> 10
